From PubChem BioAssay AID1671190 (National Center for Advancing Translational Sciences (NCATS), 2021)
Screen size: about 580,000 compounds; about 6,100 (1.1%) were called active. Inconclusive results, whose numbers are uncertain, are shown with a selection of clear calls. Calls come from the whole dose curve; as a rule, active = well fitted inhibition curve with a large enough effect; inconclusive = small, poorly fitted or top-dose-only effect, or another doubt; inactive = no such curve, though single readings can be large or run the other way. A potency beside an inconclusive call is a rough fit, not a confirmed value.

Amino acid sequences for entries named in this document (tags omitted). A change or cut given only in a name is not applied to a line headed by its entry.
UniProt P18054: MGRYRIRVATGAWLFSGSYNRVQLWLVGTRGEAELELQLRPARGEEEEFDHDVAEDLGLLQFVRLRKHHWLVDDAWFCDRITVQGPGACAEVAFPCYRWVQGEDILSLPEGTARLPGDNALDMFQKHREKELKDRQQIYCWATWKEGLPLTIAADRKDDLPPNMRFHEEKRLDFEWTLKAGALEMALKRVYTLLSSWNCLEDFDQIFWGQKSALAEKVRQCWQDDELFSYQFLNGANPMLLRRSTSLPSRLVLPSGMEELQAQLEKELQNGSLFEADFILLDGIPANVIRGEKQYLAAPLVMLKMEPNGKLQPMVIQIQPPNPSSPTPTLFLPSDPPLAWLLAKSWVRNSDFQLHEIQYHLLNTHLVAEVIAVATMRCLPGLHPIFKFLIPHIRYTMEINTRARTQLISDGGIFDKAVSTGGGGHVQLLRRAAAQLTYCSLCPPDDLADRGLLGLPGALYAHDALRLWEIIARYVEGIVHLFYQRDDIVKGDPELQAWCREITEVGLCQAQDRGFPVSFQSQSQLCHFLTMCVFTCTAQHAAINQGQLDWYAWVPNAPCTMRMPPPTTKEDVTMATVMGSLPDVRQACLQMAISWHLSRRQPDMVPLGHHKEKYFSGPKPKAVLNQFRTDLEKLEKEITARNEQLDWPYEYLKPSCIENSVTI

target: Polyunsaturated fatty acid lipoxygenase ALOX12 (Homo sapiens) (UniProt P18054); assay: Primary qHTS assay for inhibitors of human arachidonate 12S-lipoxygenase (ALOX12): Round 2; conditions: purified 12hLO, xylenol orange hydroperoxide absorbance; series mostly up to 108 µM
Procedure, shortened: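 Purified human 12hLO (150 nM final) in 25 mM Hepes, 0.01% Triton X-100, pH 7.0 was preincubated 15 min at room temperature with compound. Then 40 uM arachidonic acid was added, 30 min. Hydroperoxide was read by Fe-XO absorbance ratio 573/405 nm.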
Potency is the fitted concentration of half-maximal effect.

Which Potency does the source give for `CC(NS(=O)(=O)c1ccccc1)C1COc2ccccc2O1` (configuration not stated) here?
Its Potency is inconclusive: 8.91 µM [inhibitor, full curve, poor fit].

With `CCC(=O)N1CC2(CC(c3cccc(NC(=O)CC(c4ccccc4)c4ccccc4)c3)=NO2)C[C@H]1C(N)=O` (some centres not stated) as the molecule, how does the Potency read?
The Potency was inconclusive: 7.08 µM [inhibitor, full curve, poor fit].

Which Potency does the source give for `C/C(=C\c1ccc(Cl)cc1)C(=O)c1c(C)cc(C)[nH]c1=O` here?
The Potency was inconclusive: 50.1 µM [inhibitor, partial curve, poor fit].

Which Potency does the source give for `CC(C)CN(Cc1cnn(C)c1)C(=O)c1cccc(OCC(N)=O)c1` here?
Its Potency is inconclusive: 100 µM [inhibitor, partial curve, poor fit].

How did the Potency turn out when `CCc1ccc(-c2cc(C)no2)cc1S(=O)(=O)Nc1cc(OC)c(OC)c(OC)c1` was run?
Its Potency is inconclusive: 89.1 µM [inhibitor, partial curve, poor fit].

Which Potency does the source give for `COc1ccc(C(CC(=O)N2CCCC2)c2c(OC)cc(OC)c3c(-c4ccccc4)cc(=O)oc23)cc1` (configuration not stated) here?
The Potency was inconclusive: 44.7 µM [inhibitor, partial curve, poor fit].

With `CN(C)C(=O)COc1ccc(Br)cc1` as the molecule, how does the Potency read?
Its Potency is “inactive”.

How did the Potency turn out when `CCOCCCn1c(-c2ccc(Cl)cc2)n[nH]c1=S` was run?
The Potency was inconclusive: 35.5 µM [inhibitor, partial curve].

How did the Potency turn out when `Cc1cc2[nH]c(=O)c(=O)[nH]c2cc1S(=O)(=O)Nc1ccc(OC(F)(F)F)cc1` was run?
Its Potency is inconclusive: 112 µM [inhibitor, partial curve, poor fit].

How did the Potency turn out when `Cc1c(-c2ccccc2)cnc2c(C)cccc12` was run?
The Potency was inconclusive: 112 µM [inhibitor, single point].

With `CC(OC(=O)c1ccc(C#N)cc1)C(=O)NC(C)C1CC2CCC1C2` (configuration not stated) as the molecule, how does the Potency read?
Its Potency is inconclusive: 158 µM [inhibitor, single point].

Which Potency does the source give for `COc1ccc(CN(C)Cc2c(O)ccc3cc(Br)ccc23)cc1OC` here?
Its Potency is active: 28.2 µM.

Which Potency does the source give for `CC[C@@H]1Cn2c(c3nc(-c4cc(Cl)cc(Cl)c4Cl)nc-3n(C)c2=O)N1` here?
Its Potency is inconclusive: 8.91 µM [inhibitor, full curve, poor fit].

`Cc1cc(C)cc(CN2CCCCC23Cc2ccccc2CNC3=O)c1` (configuration not stated) was tested. Which Potency did it give?
The Potency was inconclusive: 79.4 µM [inhibitor, partial curve, poor fit].

Which Potency does the source give for `O=C(CN1C(=O)c2ccccc2C1=O)NCC1Cc2cccc(-c3ncccn3)c2O1` (configuration not stated) here?
Its Potency is “inactive”.

`NC(=O)CSS(=O)(=O)O` was tested. Which Potency did it give?
The Potency was inconclusive: 6.31 µM [inhibitor, full curve].

`CC(C(=O)NCc1cccs1)N1CCC(O)CC1` (configuration not stated) was tested. Which Potency did it give?
The Potency was inconclusive: 100 µM [inhibitor, partial curve, poor fit].
